{"source": "patent US20160002273A1", "about": "“THIENO[3,2-D]PYRIMIDINE-6-CARBOXAMIDES AND ANALOGUES AS SIRTUIN MODULATORS” (GLAXOSMITHKLINE LLC, priority 2013, published 2016)", "tested_on": "panel of kinases, nuclear receptors, ion channels, transporters and GPCRs", "assay": "Broad selectivity profiling panel", "details": "generally selective", "note": "Some results were stated once for a whole list of compounds, not compound by compound."}
{"molecule": "CC(C)(C)C(=O)NCCC1CCN(c2ncnc3cc(C(N)=O)sc23)CC1", "note": "[Compound 28, 4-(4-(2-pivalamidoethyl)piperidin-1-yl)thieno[3,2-d]pyrimidine-6-carboxamide]", "values": [{"measurement": "XC50", "result": "> 10", "unit": "µM"}]}
